In PubChem BioAssay AID2417 (National Center for Advancing Translational Sciences (NCATS), 2010):
Hit rate of the full screen: of about 140,000 compounds, about 4,300 (3.1%) were called active. This list was built around the results that the source calls inconclusive (neither active nor inactive); the mix of calls is not that of the screen.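 The calls were made as follows: active = readout at or below -70, meaning at least 70% loss of cells showing the perinucleolar compartment, a nuclear body marking cancer cells; inconclusive = readout between -30 and a set limit; inactive = the rest.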

Assay: High Content Assay for Compounds that inhibit the Assembly of the Perinucleolar Compartment;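 also: plate controls were DMSO wells for no effect and camptothecin positive control wells for full effect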
Conditions: PC3M PTB-GFP, PNC prevalence imaging, 16 h; at 10 µM; hits give low values
Summary of the method: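 PC3M cells stably expressing PTB-GFP, 750–1000 cells/well, treated 16 h at 37 °C with compound (23 nl of library stock), in duplicate. After paraformaldehyde fixation and Hoechst stain, imaged at 20x; PNC prevalence scored by image analysis.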
With `COc1ccc(NC(=O)c2ccc3c(c2)C(=O)N(Cc2cccnc2)C3=O)c(OC)c1` the activity change (PNC), negative = inhibition was inconclusive: -48.1%.
In the case of `Cc1cc2cc(CCNC(=O)c3ccc(C)c([N+](=O)[O-])c3)c(=O)[nH]c2cc1C`, the activity change (PNC), negative = inhibition is reported as inconclusive: -32.3%.
For `CCCCOC(=O)C1C2C=CC3(CN(CCc4ccccc4)C(=O)C13)O2` (stereo not given), the activity change (PNC), negative = inhibition was inconclusive: -47%.
With `COC(=O)CCC(NC(=O)OCc1ccccc1)C(=O)NC(CC(C)C)C(=O)OC` (stereo not given) the activity change (PNC), negative = inhibition was inactive: 0.117%.
For `CCCCn1c(SCc2ccc(C(=O)OC)o2)nc2cc(S(N)(=O)=O)ccc21`, the activity change (PNC), negative = inhibition was inactive: -18.6%.
For `CCCCCOC(=O)c1ccc(NC(=O)c2ccco2)cc1`, the activity change (PNC), negative = inhibition was inconclusive: -44.1%.
For `CCOc1ccc(NC(=O)CCN2CCN(S(=O)(=O)c3ccc(OC)cc3)CC2)cc1`, the activity change (PNC), negative = inhibition was inactive: -11.5%.
For `CCOc1ccccc1CN(CCc1ccc2c(c1)OCO2)Cc1ccccn1`, the activity change (PNC), negative = inhibition was inconclusive: -68.7%.
For `Cc1cc(C(=O)OCC(=O)NCc2ccco2)c(C)n1-c1ccccc1`, the activity change (PNC), negative = inhibition was inconclusive: -65.5%.
With `CCN1C(=O)CSc2ccc(C(=O)NC3CCCCC3)cc21` the activity change (PNC), negative = inhibition was inconclusive: -33.1%.
In the case of `O=C(CCSc1ccccc1)Nc1ccccc1C(=O)N1CCCC1`, the activity change (PNC), negative = inhibition is reported as inconclusive: -60.3%.
For `Cc1ccc(-n2c(C)cc(C(=O)CSc3nncs3)c2C)cc1`, the activity change (PNC), negative = inhibition was inconclusive: -56.8%.
For `COc1ccc(CN(CCCN2CCOCC2)S(=O)(=O)N(C)C)cc1OC`, the activity change (PNC), negative = inhibition was inconclusive: -30.2%.
With `O=C(/C=C/c1cccc(Cl)c1)Nc1ccncc1` the activity change (PNC), negative = inhibition was inconclusive: -60.4%.
With `COC(=O)c1ccccc1NC(=O)C(C)Oc1ccccc1` (stereo not given) the activity change (PNC), negative = inhibition was inconclusive: -44.9%.
For `CCNC(=S)NS(=O)(=O)c1ccc(CC)cc1`, the activity change (PNC), negative = inhibition was inactive: -2.78%.
For `O=C1CC(C2CCCO2)C(=O)N1Cc1ccccc1` (stereo not given), the activity change (PNC), negative = inhibition was inconclusive: -38.4%.
With `CSc1ccc(/C=C(\C#N)C(=O)NC2CCCCC2C)cc1` (stereo not given) the activity change (PNC), negative = inhibition was inconclusive: -45.6%.
With `O=[N+]([O-])c1ccc(N/N=C/c2ccc[nH]2)cc1` the activity change (PNC), negative = inhibition was active: -96.7%.
In the case of `CC(C)C(NC(=O)OCc1ccccc1)C(=O)OCC(=O)N1C(C)CCCC1C` (stereo not given), the activity change (PNC), negative = inhibition is reported as inconclusive: -57%.
With `COC(=O)c1ccc(NC(=O)C(=O)N2CCN(C(=S)Nc3ccc(C)cc3)CC2)cc1` the activity change (PNC), negative = inhibition was inconclusive: -40.1%.
With `COC(=O)c1cc(NC(=O)CCc2c(C)nc3ncnn3c2C)cc(C(=O)OC)c1` the activity change (PNC), negative = inhibition was inconclusive: -50.9%.
For `CC(OC(=O)C1CC=CCC1C(N)=O)C(Cl)=C(Cl)Cl` (stereo not given), the activity change (PNC), negative = inhibition was inconclusive: -49.8%.
For `CC(C)c1nc2sc3c(=O)[nH]c(=S)[nH]c3c2c2c1CCC2`, the activity change (PNC), negative = inhibition was inactive: 41.9%.
In the case of `CCN(c1ccccc1)S(=O)(=O)c1ccc(NC(=S)NC(=O)c2cccs2)cc1`, the activity change (PNC), negative = inhibition is reported as inactive: 3.71%.
With `Cc1ccc(NC(=O)CN(C)S(=O)(=O)c2cccc3cccnc23)cc1` the activity change (PNC), negative = inhibition was inactive: -2.35%.
With `COC(=O)c1ccc(/C=N\n2c(C)nnc2C)cc1` the activity change (PNC), negative = inhibition was inconclusive: -49.4%.
For `O=C(Nc1ccccc1)Nc1ccc2snnc2c1`, the activity change (PNC), negative = inhibition was inconclusive: -51.5%.
In the case of `O=C(Cn1cnc2c(nnn2-c2cccc(Cl)c2)c1=O)N1CCOCC1`, the activity change (PNC), negative = inhibition is reported as inconclusive: -39.1%.
With `CCOc1ccc(NC(=O)C2(c3ccc(OC)c(OC)c3)CCCC2)cc1` the activity change (PNC), negative = inhibition was inconclusive: -36%.
For `COc1cc2c(cc1OC)-c1cc(OCc3cccnc3)nc(=O)n1CC2`, the activity change (PNC), negative = inhibition was inconclusive: -73.1%.
In the case of `C=CCn1c(SCC(=O)NCc2ccco2)nc2sc3c(c2c1=O)CCC3`, the activity change (PNC), negative = inhibition is reported as inconclusive: -51%.
With `CCN(CC)S(=O)(=O)c1ccc(NC(=O)Nc2cccc(C(F)(F)F)c2)cc1` the activity change (PNC), negative = inhibition was inactive: 15.9%.
In the case of `COc1ccc(CC(=O)Nc2ccc(-c3nc4cc(C)ccc4o3)c(O)c2)cc1OC`, the activity change (PNC), negative = inhibition is reported as inconclusive: -37.4%.
With `COc1cccc(/C=c2\sc3nc(-c4cccs4)nn3c2=O)c1OC` the activity change (PNC), negative = inhibition was inconclusive: -49.2%.
With `Cn1c(CSc2nc3ccccc3s2)n[nH]c1=S` the activity change (PNC), negative = inhibition was inactive: 13.2%.
With `O=c1oc2ccccc2c(O)c1/C=N/c1ncccn1` the activity change (PNC), negative = inhibition was inactive: -10.9%.
In the case of `Cc1ccc(S(=O)(=O)c2nc(N3CCOCC3)sc2Cl)cc1`, the activity change (PNC), negative = inhibition is reported as inconclusive: -62.9%.
In the case of `O=C(NCc1ccco1)c1cc(-c2cccs2)nc2ccccc12`, the activity change (PNC), negative = inhibition is reported as inactive: 31.4%.
With `CCn1c(SCC(=O)N2CCC(C(N)=O)(N3CCCCC3)CC2)nnc1-c1ccccc1` the activity change (PNC), negative = inhibition was inconclusive: -52.5%.
With `CCOC(=O)c1sc(=S)n(Cc2ccccc2)c1N` the activity change (PNC), negative = inhibition was inactive: -14.5%.
With `O=C(O)c1c(Cl)c(Cl)c(Cl)c(Cl)c1C(=O)N1CCCC1` the activity change (PNC), negative = inhibition was inactive: 19.1%.
In the case of `Cn1c(=O)[nH]c(=O)c2[nH]c(NCCCN3CCOCC3)nc21`, the activity change (PNC), negative = inhibition is reported as inconclusive: -42.5%.
With `COCCN(C(=S)Nc1c(C)cccc1C)C(C)c1cccnc1` (stereo not given) the activity change (PNC), negative = inhibition was inconclusive: -33.6%.
In the case of `CCCCSc1nc(N)c(C#N)c(-c2cccs2)c1C#N`, the activity change (PNC), negative = inhibition is reported as inconclusive: -35.5%.
